PubChem BioAssay AID504791 – Drosophila RNAi Screening Center – 2011
The deposit covers about 23,000 reagents; below is an unselected part of those that have a named target and a result. Of all reagents, 199 (0.86%) are marked active. 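Plate-scaled ratios behind the calls are not deposited; printed light signals are raw; many rows marked increased or decreased are still called inactive.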 Entries without a mark were called inactive. The numbers tell different reagents against one gene apart. A plus sign joins genes that one reagent is predicted to hit.

Assay: 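Genes whose knock-down strengthens or weakens small-RNA reporter silencing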 (primary screen)
Cell system: Drosophila S2-derived reporter cells
Reagent: long dsRNA against Drosophila genes, about 150-250 ng dsRNA per well (siRNA assay); about 80-120 ng (miRNA assay)
Duration: about 5 days (siRNA assay); about 4 days (miRNA assay)
Conditions: copper sulfate induction of reporters: 25 µM (siRNA assay); 200 mM stated (miRNA assay), 1-2 days before reading
Measured: 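Dual luciferase assay: Renilla to firefly signal ratio in each well, scaled to the mean ratio of its plate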
Reading the numbers: siRNA reporter hit score: higher = 3 marks a strong hit with raised ratio; -3 a strong hit with lowered ratio
Call rule: 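First-pass picks had plate-scaled ratios over 1.5 for the siRNA assay, over 1.6 for the miRNA assay, or under 0.6; two distinct dsRNAs had to score alike on retest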

Gene | reagent | siRNA reporter hit score | stable siRNA reporter change | miRNA reporter change | stable assay Renilla, run 1 (luminescence) | stable assay firefly, run 1 (luminescence)
CG34163 | 1 | – | – | – | 6542 | 6.18e5
CG9667 | 1 | – | – | – | 7387 | 4.80e5
Pdxk | 1 | – | – | – | 5855 | 5.48e5
CG42237 | 1 | – | – | – | 6151 | 4.98e5
CG4629 | 1 | – | – | – | 7295 | 4.30e5
CG12107 | 1 | – | – | – | 8067 | 6.03e5
Taf4 | 1 | – | – | – | 7078 | 4.06e5
CG13033 | 1 | – | – | – | 7240 | 3.90e5
dpr16 | 1 | – | – | – | 6176 | 4.58e5
dpr16 | 2 | – | – | – | 4468 | 3.92e5
BORCS6 | 1 | – | – | – | 5578 | 3.49e5
Sas-4 | 1 | – | – | – | 7012 | 3.74e5
Cyp313b1 | 1 | – | – | – | 6746 | 3.74e5
CG9328 | 1 | – | – | reporter ratio lowered past the hit cutoff | 7499 | 1.36e6
Nha2 | 1 | – | – | – | 6691 | 4.04e5
Nha2 | 2 | – | reporter ratio raised past the hit cutoff | – | 9844 | 2.37e5
Nha2 | 3 | – | – | – | 6490 | 3.21e5
mtSSB | 1 | – | – | – | 7307 | 4.33e5
CG32945 | 1 | – | – | – | 5384 | 3.65e5
CG13829 | 1 | – | – | – | 7526 | 3.09e5
jet | 1 | – | – | – | 13621 | 7.43e5
Pp2B-14D | 1 | – | – | – | 4755 | 4.17e5
Pp2B-14D | 2 | – | – | – | 5079 | 3.73e5
CG34165 | 1 | – | – | – | 4587 | 3.06e5
Cfp1 | 1 | – | – | – | 7446 | 5.08e5
CG17824 (retired record) | 1 | – | – | – | 6238 | 3.86e5
CG33796 | 1 | – | – | – | 6091 | 4.55e5
Obp69a | 1 | – | – | – | 6834 | 4.55e5
CG16741 | 1 | – | – | – | 5367 | 3.53e5
grn | 1 | – | – | – | 4680 | 2.48e5
grn | 2 | – | – | – | 6631 | 4.41e5
SPH93 | 1 | – | – | – | 7695 | 4.42e5
CG15286 | 1 | – | – | – | 5999 | 2.86e5
mEFTu1 | 1 | – | – | – | 7184 | 4.69e5
wls | 1 | – | – | – | 9457 | 5.87e5
CG7992 | 1 | – | – | – | 5171 | 3.93e5
Ank | 1 | – | – | – | 10357 | 7.39e5
CG10062 | 1 | – | – | – | 7711 | 3.39e5
CG10062 | 2 | – | – | – | 4535 | 4.05e5
CG15742 | 1 | – | – | – | 8439 | 4.54e5
CG6329 | 1 | – | – | – | 8022 | 4.07e5
mIF2 | 1 | – | – | – | 6598 | 3.77e5
CG8093 | 1 | – | – | – | 5879 | 3.48e5
CG14020 | 1 | – | – | – | 7267 | 4.96e5
CG7304 | 1 | – | – | – | 7486 | 2.89e5
wat | 1 | – | – | – | 6327 | 3.75e5
CG30377 | 1 | – | – | – | 8018 | 5.06e5
CG30377 | 2 | – | – | – | 5295 | 2.80e5
CG10465 | 1 | – | – | – | 5639 | 2.74e5
CG11788 | 1 | – | – | – | 5999 | 3.14e5
Vha100-3 | 1 | – | – | – | 5714 | 4.02e5
CG3703 | 1 | – | – | – | 6412 | 3.80e5
CG3703 | 2 | – | – | – | 6380 | 3.60e5
CG3703 | 3 | – | – | – | 6555 | 3.45e5
CG12935 + Nop10 | 1 | – | – | – | 5390 | 3.81e5
Fili | 1 | – | – | – | 5112 | 3.39e5
Fili | 2 | – | – | – | 6403 | 3.75e5
Fili | 3 | – | – | – | 6500 | 3.68e5
CG3397 | 1 | – | – | – | 8747 | 4.71e5
slam | 1 | – | – | – | 9855 | 6.14e5
Vps4 | 1 | – | – | – | 6386 | 3.52e5
Cpr100A | 1 | – | – | – | 6458 | 3.65e5
Trf2 | 1 | 3 | – | – | 4235 | 2.78e5
Fum4 | 1 | – | – | – | 4667 | 4.68e5
CG18662 | 1 | – | – | – | 7742 | 3.98e5
Pdzd8 | 1 | – | – | reporter ratio lowered past the hit cutoff | 6643 | 5.10e5
CG14258 | 1 | – | – | – | 6676 | 3.42e5
CG31601 | 1 | – | – | – | 4519 | 2.98e5
Rbp1 | 1 | – | – | – | 10839 | 4.14e5
alphaTry | 1 | – | – | – | 6392 | 3.79e5
Spn42Db | 1 | – | – | – | 7471 | 4.70e5
CG30470 (retired record) | 1 | – | – | – | 4036 | 2.09e5
CG30470 (retired record) | 2 | – | – | – | 5232 | 3.26e5
CG30470 (retired record) | 3 | – | – | – | 6318 | 3.03e5
CG30470 (retired record) | 4 | – | – | – | 5479 | 2.93e5
CG30470 (retired record) | 5 | – | – | – | 4691 | 3.67e5
LRR | 1 | – | – | – | 6343 | 3.40e5
Gr85a | 1 | – | – | – | 7254 | 5.29e5
PGRP-SC2 | 1 | – | reporter ratio raised past the hit cutoff | – | 8815 | 3.06e5
f | 1 | 3 | – | – | 5738 | 4.29e5
f | 2 | – | – | – | 6378 | 3.81e5
f | 3 | – | – | – | 5275 | 4.05e5
CG42821 + CG42822 | 1 | – | – | – | 3956 | 3.66e5
CG42821 + CG42822 | 2 | – | – | – | 4699 | 5.11e5

14 entries from above, sorted by “stable assay firefly, run 1 (luminescence)”, highest first:
Gene | reagent | siRNA reporter hit score | stable siRNA reporter change | miRNA reporter change | stable assay Renilla, run 1 (luminescence) | stable assay firefly, run 1 (luminescence)
CG30377 | 1 | – | – | – | 8018 | 5.06e5
CG3397 | 1 | – | – | – | 8747 | 4.71e5
Vha100-3 | 1 | – | – | – | 5714 | 4.02e5
CG12935 + Nop10 | 1 | – | – | – | 5390 | 3.81e5
CG3703 | 1 | – | – | – | 6412 | 3.80e5
wat | 1 | – | – | – | 6327 | 3.75e5
Fili | 2 | – | – | – | 6403 | 3.75e5
Fili | 3 | – | – | – | 6500 | 3.68e5
CG3703 | 2 | – | – | – | 6380 | 3.60e5
CG3703 | 3 | – | – | – | 6555 | 3.45e5
Fili | 1 | – | – | – | 5112 | 3.39e5
CG11788 | 1 | – | – | – | 5999 | 3.14e5
CG30377 | 2 | – | – | – | 5295 | 2.80e5
CG10465 | 1 | – | – | – | 5639 | 2.74e5
